Test results published in patent WO1994018227A2.
No constants are given. Whether binding was seen depends on the method and setting. Some entries that bind do so weakly or less than the wild type.

By UniProt entry, the sequences of proteins in these tests, tags left out. Residues count along the entry.
UniProt Q07954, residues 20-4544: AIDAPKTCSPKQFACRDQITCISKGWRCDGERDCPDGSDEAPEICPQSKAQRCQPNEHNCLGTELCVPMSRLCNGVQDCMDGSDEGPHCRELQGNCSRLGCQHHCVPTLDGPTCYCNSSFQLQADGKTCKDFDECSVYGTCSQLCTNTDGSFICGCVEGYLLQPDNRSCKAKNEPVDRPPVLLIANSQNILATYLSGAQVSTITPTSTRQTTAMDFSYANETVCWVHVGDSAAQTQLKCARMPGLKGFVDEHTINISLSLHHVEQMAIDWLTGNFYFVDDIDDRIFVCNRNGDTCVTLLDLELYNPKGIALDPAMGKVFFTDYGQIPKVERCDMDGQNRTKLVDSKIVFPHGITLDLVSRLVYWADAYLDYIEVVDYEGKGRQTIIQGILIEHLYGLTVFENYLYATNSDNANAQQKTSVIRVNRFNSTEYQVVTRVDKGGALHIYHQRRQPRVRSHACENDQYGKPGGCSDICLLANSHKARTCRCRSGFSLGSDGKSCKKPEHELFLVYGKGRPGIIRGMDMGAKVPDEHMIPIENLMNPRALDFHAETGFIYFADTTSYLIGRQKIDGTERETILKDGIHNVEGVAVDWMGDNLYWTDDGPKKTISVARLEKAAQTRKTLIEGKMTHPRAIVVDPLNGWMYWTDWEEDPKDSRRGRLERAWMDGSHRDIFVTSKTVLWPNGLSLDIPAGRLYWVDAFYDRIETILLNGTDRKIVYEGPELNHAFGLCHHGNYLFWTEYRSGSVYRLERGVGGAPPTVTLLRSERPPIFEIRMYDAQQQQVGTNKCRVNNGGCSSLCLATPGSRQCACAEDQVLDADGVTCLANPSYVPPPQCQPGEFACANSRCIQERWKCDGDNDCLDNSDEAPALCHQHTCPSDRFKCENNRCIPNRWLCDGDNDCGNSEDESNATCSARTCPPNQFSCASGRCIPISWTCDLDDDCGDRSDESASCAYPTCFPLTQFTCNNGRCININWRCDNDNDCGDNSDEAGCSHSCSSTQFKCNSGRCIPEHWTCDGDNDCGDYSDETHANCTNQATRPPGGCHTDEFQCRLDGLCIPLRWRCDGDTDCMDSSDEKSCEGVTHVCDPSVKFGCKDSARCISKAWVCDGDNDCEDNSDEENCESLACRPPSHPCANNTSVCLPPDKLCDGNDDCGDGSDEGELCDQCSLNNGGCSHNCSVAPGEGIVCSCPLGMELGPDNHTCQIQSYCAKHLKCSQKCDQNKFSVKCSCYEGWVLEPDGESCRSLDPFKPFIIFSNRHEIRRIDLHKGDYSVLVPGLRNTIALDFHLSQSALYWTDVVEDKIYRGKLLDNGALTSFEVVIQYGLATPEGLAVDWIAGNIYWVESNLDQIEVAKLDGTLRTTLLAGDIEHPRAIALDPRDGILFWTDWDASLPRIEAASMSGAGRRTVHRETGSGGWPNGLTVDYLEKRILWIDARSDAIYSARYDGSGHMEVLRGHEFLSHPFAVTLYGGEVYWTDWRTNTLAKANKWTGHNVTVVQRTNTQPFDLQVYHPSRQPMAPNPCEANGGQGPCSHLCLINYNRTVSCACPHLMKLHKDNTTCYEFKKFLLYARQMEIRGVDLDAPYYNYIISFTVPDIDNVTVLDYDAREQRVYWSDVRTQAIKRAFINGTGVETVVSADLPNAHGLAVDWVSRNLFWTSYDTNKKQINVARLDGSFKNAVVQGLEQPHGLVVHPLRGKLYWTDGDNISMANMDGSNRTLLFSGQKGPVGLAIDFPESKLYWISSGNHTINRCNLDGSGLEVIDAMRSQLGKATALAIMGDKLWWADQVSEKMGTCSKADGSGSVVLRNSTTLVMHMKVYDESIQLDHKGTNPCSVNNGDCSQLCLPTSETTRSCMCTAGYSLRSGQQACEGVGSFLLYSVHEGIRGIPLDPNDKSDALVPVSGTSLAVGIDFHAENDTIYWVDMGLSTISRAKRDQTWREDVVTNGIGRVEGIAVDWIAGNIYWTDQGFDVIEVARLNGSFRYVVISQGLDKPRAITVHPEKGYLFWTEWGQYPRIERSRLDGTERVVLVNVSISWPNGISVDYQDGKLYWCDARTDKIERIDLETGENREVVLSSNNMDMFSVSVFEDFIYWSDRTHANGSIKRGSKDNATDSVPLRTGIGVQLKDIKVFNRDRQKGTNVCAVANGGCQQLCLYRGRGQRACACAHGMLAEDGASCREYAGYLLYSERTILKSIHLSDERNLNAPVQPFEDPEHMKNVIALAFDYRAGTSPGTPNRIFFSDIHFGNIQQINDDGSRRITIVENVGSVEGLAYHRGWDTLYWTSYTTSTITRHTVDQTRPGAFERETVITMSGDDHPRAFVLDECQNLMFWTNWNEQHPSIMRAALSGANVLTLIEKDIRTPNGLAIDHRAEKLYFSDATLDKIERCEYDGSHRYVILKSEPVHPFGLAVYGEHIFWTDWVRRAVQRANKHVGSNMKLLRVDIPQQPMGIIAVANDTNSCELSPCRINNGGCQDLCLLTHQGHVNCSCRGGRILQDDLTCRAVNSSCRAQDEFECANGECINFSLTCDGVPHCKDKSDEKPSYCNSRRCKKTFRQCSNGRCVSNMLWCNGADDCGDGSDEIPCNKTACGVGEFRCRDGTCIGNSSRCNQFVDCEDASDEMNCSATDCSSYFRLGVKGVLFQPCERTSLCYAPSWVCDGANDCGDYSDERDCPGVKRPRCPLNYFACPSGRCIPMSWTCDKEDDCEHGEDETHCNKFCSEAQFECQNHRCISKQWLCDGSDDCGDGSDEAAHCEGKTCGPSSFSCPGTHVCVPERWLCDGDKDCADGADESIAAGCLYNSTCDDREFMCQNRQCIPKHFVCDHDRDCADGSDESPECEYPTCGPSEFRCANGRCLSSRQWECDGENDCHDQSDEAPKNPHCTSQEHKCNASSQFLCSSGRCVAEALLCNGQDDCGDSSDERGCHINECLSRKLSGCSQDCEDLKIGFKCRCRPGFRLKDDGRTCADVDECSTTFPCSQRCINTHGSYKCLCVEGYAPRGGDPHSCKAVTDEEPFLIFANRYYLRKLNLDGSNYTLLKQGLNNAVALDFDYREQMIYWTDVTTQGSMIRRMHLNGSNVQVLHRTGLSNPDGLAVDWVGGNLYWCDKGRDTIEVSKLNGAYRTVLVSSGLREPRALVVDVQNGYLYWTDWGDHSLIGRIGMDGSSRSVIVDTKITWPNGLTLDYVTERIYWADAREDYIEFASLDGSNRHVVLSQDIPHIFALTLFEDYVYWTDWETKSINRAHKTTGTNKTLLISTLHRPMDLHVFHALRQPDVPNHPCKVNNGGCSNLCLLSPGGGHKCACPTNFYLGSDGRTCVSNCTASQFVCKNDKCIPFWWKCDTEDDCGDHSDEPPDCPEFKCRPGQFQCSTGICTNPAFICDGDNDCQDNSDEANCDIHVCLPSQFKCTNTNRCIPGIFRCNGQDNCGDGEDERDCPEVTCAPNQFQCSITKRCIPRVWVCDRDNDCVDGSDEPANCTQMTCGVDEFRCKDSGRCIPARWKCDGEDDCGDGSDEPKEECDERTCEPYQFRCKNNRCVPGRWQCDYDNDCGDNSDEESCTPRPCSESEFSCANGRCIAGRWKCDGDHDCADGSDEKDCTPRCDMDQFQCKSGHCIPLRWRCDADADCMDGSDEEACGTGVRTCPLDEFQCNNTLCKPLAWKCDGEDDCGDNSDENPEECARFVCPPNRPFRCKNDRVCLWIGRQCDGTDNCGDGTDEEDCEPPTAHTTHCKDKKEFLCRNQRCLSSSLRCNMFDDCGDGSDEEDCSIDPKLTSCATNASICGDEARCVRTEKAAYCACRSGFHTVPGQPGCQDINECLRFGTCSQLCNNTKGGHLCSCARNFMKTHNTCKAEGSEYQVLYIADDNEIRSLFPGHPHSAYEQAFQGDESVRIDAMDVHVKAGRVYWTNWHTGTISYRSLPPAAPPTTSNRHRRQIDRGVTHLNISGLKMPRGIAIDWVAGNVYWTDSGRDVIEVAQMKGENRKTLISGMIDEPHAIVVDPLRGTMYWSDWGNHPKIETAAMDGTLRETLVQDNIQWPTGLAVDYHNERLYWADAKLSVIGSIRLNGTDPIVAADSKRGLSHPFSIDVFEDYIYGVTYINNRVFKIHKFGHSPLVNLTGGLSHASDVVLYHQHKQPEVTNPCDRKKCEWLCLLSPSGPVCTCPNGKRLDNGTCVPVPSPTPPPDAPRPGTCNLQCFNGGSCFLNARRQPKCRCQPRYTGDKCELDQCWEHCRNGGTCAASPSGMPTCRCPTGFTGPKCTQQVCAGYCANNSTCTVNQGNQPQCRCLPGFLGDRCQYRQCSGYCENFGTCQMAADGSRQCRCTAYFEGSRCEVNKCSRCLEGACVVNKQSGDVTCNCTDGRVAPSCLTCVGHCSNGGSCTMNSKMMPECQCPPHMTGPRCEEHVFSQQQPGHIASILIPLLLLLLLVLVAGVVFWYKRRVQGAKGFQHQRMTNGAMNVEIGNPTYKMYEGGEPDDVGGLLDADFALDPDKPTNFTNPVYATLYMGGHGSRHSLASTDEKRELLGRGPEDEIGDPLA
UniProt P30533, residues 35-357: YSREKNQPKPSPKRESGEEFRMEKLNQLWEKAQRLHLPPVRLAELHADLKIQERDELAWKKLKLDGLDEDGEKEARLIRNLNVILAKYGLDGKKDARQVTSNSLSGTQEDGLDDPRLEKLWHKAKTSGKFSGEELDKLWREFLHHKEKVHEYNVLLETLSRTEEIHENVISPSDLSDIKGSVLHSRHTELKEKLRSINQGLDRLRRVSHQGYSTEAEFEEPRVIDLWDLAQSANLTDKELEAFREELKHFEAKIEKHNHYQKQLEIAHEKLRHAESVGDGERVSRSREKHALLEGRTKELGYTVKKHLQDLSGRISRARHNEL

Molecular target: α2-Macroglobulin Receptor (UniProt Q07954)
Experiment: ligand binding to the receptor, assay not described

| binding | Substance |
| --- | --- |
| binds | purified natural α2MRAP protein (from UniProt P30533 35-357) |
| binds | recombinant human α2-Macroglobulin Receptor Associated Protein (from UniProt P30533 35-357) |
